This passage reports binding signal results from paper PMC7819943, “Rice protein-binding microarrays: a tool to detect cis-acting elements near promoter regions in rice”.

Sequences of proteins named here, by UniProt entry; tags and fusion partners are left off.
UniProt Q0JBA9, entry or part of it: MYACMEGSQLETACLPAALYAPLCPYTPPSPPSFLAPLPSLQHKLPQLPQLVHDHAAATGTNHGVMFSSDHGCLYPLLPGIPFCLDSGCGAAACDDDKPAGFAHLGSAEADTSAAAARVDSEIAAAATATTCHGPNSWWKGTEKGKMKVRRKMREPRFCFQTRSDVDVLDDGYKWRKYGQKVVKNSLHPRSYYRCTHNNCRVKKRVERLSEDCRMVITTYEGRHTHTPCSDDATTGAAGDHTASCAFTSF

The other results are listed elsewhere or left out.

The target in the test is OsWRKY34 (Oryza sativa, UniProt Q0JBA9 1-250). Kind of test: protein-binding microarray (RPBM); PBS, 2% BSA, 51.3 ng/ul salmon testes DNA, 50 uM zinc acetate, 200 nM TF, 25 C, 1 h; high values mean tight binding. Particulars: protein: recombinant; tags: N-terminal polyhistidine and DsRed monomer fusion (pET32a); label: CyDye5-dUTP incorporated in the synthesized complementary strand; 3' TTTTT single-stranded linker to array surface; dsDNA, one strand shown. In short, it runs like this:
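Using Ni–NTA, transcription factors fused N-terminally to polyhistidine and DsRed were purified after expression in E. coli BL21-CodonPlus. These were incubated at 200 nM with a blocked, double-stranded custom Agilent array for 1 h at 25 °C in a buffer containing 50 µM zinc acetate, and the array was washed. The binding signal is per-feature fluorescence intensity (arbitrary units) on an Axon 4000B scanner.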
Take “GGTTATGGTTTTATTGAATTTCAGTCTCACGCTGCTGCAGCGGAGTCACCTAGTGCAG”: the binding signal was 9800 fluorescence intensity (a.u.).

For the sequence “AAGGATGGTTGGTTGGTTGGTTGGTTGGTGAGTTGTCTCCCGGAGTCACCTAGTGCAG”, the binding signal is 16000 fluorescence intensity (a.u.).

For “TTCCATCGCTATTCTGTTAGGATCTAACCGTTTGATAGCTCGGAGTCACCTAGTGCAG”, the binding signal was 8140 fluorescence intensity (a.u.).

For “CCATCGCCATCGCCGCAGTCTCGCAGGTCAGTCTCCTCGCCGGAGTCACCTAGTGCAG”, the binding signal is 9730 fluorescence intensity (a.u.).

“CGCCTCGGGAGCTGTTTCCAATGATCATAGCCATTTTTCCCGGAGTCACCTAGTGCAG”: the binding signal was 9260 fluorescence intensity (a.u.).

“TGCGTACATATAAATTTCATATCGGGGTTGTGGAAGTCCACGGAGTCACCTAGTGCAG”: the binding signal is 8190 fluorescence intensity (a.u.).

On to “TGAAATGTATCATCTTGGTGTTATTTGACTGAGTCATAATCGGAGTCACCTAGTGCAG”, for which the binding signal was 9570 fluorescence intensity (a.u.).

“CCACCCTTCGCCGCCGCTTTGTTTCTCCCGCCGCCGCCGGCGGAGTCACCTAGTGCAG”: the binding signal is 12900 fluorescence intensity (a.u.).

“GAGTTTTTTTTAGACCGAGGGGTATGCATATTTTTTGGTTCGGAGTCACCTAGTGCAG”: the binding signal is 8620 fluorescence intensity (a.u.).

As to “ATGTGATACGTTTACTACCTTGGCATCATGTTCTTTAGGACGGAGTCACCTAGTGCAG”, the binding signal is 8350 fluorescence intensity (a.u.).

Consider “CATCTCTCTCGCTGGAATATTCTGAAGCTGCTATGTCAACCGGAGTCACCTAGTGCAG”, for which the binding signal is 9170 fluorescence intensity (a.u.).

As to “ATAAGATTTGAATGGGTGTTGGATTTGTCTTTTTTATTTCCGGAGTCACCTAGTGCAG”, the binding signal is 8200 fluorescence intensity (a.u.).

As for “TCTAAGCCGATGACGCCTTTGTCGATTACCAATTTTCACTCGGAGTCACCTAGTGCAG”, the binding signal is 9070 fluorescence intensity (a.u.).

Take “GAGCAACATAAGCGGTCCAAGGTAGAATTGAACACCAGAACGGAGTCACCTAGTGCAG”: the binding signal is 9290 fluorescence intensity (a.u.).

With “TACACCAGCCTAAATCAACGTCCACCTACAATTCCACACTCGGAGTCACCTAGTGCAG”, the binding signal was 9470 fluorescence intensity (a.u.).

Regarding “CTTCGCAGCTTCTTTGTCAACTTACTCTCGTCCATGCCACCGGAGTCACCTAGTGCAG”, the binding signal was 8730 fluorescence intensity (a.u.).

For the sequence “CTCTCTCTCTCTCTCTCTCTCCTCACGCCGACGCCTCCGTCGGAGTCACCTAGTGCAG”, the binding signal was 10700 fluorescence intensity (a.u.).

Regarding “CATGGTATGTGGTGGGTCCTGTCGAGATTTAGTCAACTACCGGAGTCACCTAGTGCAG”, the binding signal was 11655 ± 9.9 fluorescence intensity (a.u.).

Turning to “TATATATATATATATATATATATATAGAAATTAAGTCAAACGGAGTCACCTAGTGCAG”, the binding signal is 8940 fluorescence intensity (a.u.).

Take “TGGACCTCTAGCCGATGTATGCTTTAACCTTCAGATCAGTCGGAGTCACCTAGTGCAG”: the binding signal was 8720 fluorescence intensity (a.u.).

Take “CCACCGCCTTTGCCTATGCGGCTCCGCTCCCGCCGGCCATCGGAGTCACCTAGTGCAG”: the binding signal was 8400 fluorescence intensity (a.u.).

On to “ACCGAACTTGAGAACGACGTCCCGCTTCCGCACCTGCAATCGGAGTCACCTAGTGCAG”, for which the binding signal was 8340 fluorescence intensity (a.u.).

With “TTGGACACCATGCCTGCCTCTTTACACACACATTAATTTACGGAGTCACCTAGTGCAG”, the binding signal was 9300 fluorescence intensity (a.u.).

As to “TCATGCTCCCAACATCGTCGCAAAGTGCTCATCTGAACCTCGGAGTCACCTAGTGCAG”, the binding signal was 9190 fluorescence intensity (a.u.).

As to “TCCGCCACCGCCGCCTGCGCCGATCCCCATCCATCCCGCGCGGAGTCACCTAGTGCAG”, the binding signal is 10000 fluorescence intensity (a.u.).

For “GGTTTCTTCCGTGTTCCTTTCGTAACAAGGGAGTTCTTCTCGGAGTCACCTAGTGCAG”, the binding signal is 11800 fluorescence intensity (a.u.).

As for “GCTCTTGCGTCGGCGGCCTCTCCGGCCACGGCGTTCTCTTCGGAGTCACCTAGTGCAG”, the binding signal is 8130 fluorescence intensity (a.u.).

Regarding “ACGGTGGCGTTGTGCCCTGTGATGGTGTCCGCGTTGTGTCCGGAGTCACCTAGTGCAG”, the binding signal is 8990 fluorescence intensity (a.u.).

On to “TGTAAACATTGTTTTCTTGCACTTTCTAACATTTTTTTCTCGGAGTCACCTAGTGCAG”, for which the binding signal is 10600 fluorescence intensity (a.u.).

“CTCACCTTTGACCGGCCGTAATAATCCCCGACACATAAGCCGGAGTCACCTAGTGCAG”: the binding signal is 8330 fluorescence intensity (a.u.).

Consider “TTGGTGGACGCCACGGTTTTCTCCCTCAGCTCATCGTTTCCGGAGTCACCTAGTGCAG”, for which the binding signal was 10400 fluorescence intensity (a.u.).

In the case of “ATTGCTTCCATGTTCAGAATATATTAACACACGATTAATTCGGAGTCACCTAGTGCAG”, the binding signal is 8770 fluorescence intensity (a.u.).

As for “CTGCCTGTCCCTTTCCTGCATCCATCCATCCATCTTGATCCGGAGTCACCTAGTGCAG”, the binding signal is 10600 fluorescence intensity (a.u.).

In the case of “TTCGTCTCGCAGTTTACAGGCAAAATCTGTATTTTGTTTTCGGAGTCACCTAGTGCAG”, the binding signal is 9160 fluorescence intensity (a.u.).

For the sequence “GCTACCATCGTCACCGCCTCAACCAAGCTACCCGTGTCTCCGGAGTCACCTAGTGCAG”, the binding signal is 10400 fluorescence intensity (a.u.).

In the case of “ACATCCTCACCACCTTAGTTCGGGTCATCTTTGGCTCTAACGGAGTCACCTAGTGCAG”, the binding signal was 8900 fluorescence intensity (a.u.).

For the sequence “CATCTGCTGCACCCTAATTGGTATCTACTCCTCATCTAATCGGAGTCACCTAGTGCAG”, the binding signal was 8590 fluorescence intensity (a.u.).

Turning to “CGCCCACGGCGTGTCCCCTGCGTGCGTGGCGCACCCGCACCGGAGTCACCTAGTGCAG”, the binding signal is 11900 fluorescence intensity (a.u.).

For the sequence “TTCCATTGTGTCTATAGGCATCAAGCTTCAGTGGTGCACACGGAGTCACCTAGTGCAG”, the binding signal is 8820 fluorescence intensity (a.u.).

With “GCTACTGCAATGACGCGTGCTAACCTCCCGTGCCATTTCGCGGAGTCACCTAGTGCAG”, the binding signal was 8140 fluorescence intensity (a.u.).

As for “GGATAATGATTTGACATTGATTGCGGTCTCGTTATTTTCTCGGAGTCACCTAGTGCAG”, the binding signal is 8180 fluorescence intensity (a.u.).

For “CCTCCCGCGCCCTCTGCCTCTGCTCGTCGGCTCGTCGCCTCGGAGTCACCTAGTGCAG”, the binding signal is 12000 fluorescence intensity (a.u.).
